Results are given in words; binding and its absence hold for the method and conditions named. Binding seen in cells or lysates may run through a third protein. Some entries that bind do so weakly or less than the wild type.
Biological target: AHNAK (human (endogenous in UCB CD34+ cells)) (UniProt Q09666)
Assay: proximity ligation; Duolink in situ PLA on fixed, permeabilised UCB CD34+ cells (cytospin); endogenous AHNAK with ANXA2 or PLEC; negative control without primary antibody; confocal microscopy

The chains behind the UniProt entries cited, without tags or fusion partners.
UniProt Q09666: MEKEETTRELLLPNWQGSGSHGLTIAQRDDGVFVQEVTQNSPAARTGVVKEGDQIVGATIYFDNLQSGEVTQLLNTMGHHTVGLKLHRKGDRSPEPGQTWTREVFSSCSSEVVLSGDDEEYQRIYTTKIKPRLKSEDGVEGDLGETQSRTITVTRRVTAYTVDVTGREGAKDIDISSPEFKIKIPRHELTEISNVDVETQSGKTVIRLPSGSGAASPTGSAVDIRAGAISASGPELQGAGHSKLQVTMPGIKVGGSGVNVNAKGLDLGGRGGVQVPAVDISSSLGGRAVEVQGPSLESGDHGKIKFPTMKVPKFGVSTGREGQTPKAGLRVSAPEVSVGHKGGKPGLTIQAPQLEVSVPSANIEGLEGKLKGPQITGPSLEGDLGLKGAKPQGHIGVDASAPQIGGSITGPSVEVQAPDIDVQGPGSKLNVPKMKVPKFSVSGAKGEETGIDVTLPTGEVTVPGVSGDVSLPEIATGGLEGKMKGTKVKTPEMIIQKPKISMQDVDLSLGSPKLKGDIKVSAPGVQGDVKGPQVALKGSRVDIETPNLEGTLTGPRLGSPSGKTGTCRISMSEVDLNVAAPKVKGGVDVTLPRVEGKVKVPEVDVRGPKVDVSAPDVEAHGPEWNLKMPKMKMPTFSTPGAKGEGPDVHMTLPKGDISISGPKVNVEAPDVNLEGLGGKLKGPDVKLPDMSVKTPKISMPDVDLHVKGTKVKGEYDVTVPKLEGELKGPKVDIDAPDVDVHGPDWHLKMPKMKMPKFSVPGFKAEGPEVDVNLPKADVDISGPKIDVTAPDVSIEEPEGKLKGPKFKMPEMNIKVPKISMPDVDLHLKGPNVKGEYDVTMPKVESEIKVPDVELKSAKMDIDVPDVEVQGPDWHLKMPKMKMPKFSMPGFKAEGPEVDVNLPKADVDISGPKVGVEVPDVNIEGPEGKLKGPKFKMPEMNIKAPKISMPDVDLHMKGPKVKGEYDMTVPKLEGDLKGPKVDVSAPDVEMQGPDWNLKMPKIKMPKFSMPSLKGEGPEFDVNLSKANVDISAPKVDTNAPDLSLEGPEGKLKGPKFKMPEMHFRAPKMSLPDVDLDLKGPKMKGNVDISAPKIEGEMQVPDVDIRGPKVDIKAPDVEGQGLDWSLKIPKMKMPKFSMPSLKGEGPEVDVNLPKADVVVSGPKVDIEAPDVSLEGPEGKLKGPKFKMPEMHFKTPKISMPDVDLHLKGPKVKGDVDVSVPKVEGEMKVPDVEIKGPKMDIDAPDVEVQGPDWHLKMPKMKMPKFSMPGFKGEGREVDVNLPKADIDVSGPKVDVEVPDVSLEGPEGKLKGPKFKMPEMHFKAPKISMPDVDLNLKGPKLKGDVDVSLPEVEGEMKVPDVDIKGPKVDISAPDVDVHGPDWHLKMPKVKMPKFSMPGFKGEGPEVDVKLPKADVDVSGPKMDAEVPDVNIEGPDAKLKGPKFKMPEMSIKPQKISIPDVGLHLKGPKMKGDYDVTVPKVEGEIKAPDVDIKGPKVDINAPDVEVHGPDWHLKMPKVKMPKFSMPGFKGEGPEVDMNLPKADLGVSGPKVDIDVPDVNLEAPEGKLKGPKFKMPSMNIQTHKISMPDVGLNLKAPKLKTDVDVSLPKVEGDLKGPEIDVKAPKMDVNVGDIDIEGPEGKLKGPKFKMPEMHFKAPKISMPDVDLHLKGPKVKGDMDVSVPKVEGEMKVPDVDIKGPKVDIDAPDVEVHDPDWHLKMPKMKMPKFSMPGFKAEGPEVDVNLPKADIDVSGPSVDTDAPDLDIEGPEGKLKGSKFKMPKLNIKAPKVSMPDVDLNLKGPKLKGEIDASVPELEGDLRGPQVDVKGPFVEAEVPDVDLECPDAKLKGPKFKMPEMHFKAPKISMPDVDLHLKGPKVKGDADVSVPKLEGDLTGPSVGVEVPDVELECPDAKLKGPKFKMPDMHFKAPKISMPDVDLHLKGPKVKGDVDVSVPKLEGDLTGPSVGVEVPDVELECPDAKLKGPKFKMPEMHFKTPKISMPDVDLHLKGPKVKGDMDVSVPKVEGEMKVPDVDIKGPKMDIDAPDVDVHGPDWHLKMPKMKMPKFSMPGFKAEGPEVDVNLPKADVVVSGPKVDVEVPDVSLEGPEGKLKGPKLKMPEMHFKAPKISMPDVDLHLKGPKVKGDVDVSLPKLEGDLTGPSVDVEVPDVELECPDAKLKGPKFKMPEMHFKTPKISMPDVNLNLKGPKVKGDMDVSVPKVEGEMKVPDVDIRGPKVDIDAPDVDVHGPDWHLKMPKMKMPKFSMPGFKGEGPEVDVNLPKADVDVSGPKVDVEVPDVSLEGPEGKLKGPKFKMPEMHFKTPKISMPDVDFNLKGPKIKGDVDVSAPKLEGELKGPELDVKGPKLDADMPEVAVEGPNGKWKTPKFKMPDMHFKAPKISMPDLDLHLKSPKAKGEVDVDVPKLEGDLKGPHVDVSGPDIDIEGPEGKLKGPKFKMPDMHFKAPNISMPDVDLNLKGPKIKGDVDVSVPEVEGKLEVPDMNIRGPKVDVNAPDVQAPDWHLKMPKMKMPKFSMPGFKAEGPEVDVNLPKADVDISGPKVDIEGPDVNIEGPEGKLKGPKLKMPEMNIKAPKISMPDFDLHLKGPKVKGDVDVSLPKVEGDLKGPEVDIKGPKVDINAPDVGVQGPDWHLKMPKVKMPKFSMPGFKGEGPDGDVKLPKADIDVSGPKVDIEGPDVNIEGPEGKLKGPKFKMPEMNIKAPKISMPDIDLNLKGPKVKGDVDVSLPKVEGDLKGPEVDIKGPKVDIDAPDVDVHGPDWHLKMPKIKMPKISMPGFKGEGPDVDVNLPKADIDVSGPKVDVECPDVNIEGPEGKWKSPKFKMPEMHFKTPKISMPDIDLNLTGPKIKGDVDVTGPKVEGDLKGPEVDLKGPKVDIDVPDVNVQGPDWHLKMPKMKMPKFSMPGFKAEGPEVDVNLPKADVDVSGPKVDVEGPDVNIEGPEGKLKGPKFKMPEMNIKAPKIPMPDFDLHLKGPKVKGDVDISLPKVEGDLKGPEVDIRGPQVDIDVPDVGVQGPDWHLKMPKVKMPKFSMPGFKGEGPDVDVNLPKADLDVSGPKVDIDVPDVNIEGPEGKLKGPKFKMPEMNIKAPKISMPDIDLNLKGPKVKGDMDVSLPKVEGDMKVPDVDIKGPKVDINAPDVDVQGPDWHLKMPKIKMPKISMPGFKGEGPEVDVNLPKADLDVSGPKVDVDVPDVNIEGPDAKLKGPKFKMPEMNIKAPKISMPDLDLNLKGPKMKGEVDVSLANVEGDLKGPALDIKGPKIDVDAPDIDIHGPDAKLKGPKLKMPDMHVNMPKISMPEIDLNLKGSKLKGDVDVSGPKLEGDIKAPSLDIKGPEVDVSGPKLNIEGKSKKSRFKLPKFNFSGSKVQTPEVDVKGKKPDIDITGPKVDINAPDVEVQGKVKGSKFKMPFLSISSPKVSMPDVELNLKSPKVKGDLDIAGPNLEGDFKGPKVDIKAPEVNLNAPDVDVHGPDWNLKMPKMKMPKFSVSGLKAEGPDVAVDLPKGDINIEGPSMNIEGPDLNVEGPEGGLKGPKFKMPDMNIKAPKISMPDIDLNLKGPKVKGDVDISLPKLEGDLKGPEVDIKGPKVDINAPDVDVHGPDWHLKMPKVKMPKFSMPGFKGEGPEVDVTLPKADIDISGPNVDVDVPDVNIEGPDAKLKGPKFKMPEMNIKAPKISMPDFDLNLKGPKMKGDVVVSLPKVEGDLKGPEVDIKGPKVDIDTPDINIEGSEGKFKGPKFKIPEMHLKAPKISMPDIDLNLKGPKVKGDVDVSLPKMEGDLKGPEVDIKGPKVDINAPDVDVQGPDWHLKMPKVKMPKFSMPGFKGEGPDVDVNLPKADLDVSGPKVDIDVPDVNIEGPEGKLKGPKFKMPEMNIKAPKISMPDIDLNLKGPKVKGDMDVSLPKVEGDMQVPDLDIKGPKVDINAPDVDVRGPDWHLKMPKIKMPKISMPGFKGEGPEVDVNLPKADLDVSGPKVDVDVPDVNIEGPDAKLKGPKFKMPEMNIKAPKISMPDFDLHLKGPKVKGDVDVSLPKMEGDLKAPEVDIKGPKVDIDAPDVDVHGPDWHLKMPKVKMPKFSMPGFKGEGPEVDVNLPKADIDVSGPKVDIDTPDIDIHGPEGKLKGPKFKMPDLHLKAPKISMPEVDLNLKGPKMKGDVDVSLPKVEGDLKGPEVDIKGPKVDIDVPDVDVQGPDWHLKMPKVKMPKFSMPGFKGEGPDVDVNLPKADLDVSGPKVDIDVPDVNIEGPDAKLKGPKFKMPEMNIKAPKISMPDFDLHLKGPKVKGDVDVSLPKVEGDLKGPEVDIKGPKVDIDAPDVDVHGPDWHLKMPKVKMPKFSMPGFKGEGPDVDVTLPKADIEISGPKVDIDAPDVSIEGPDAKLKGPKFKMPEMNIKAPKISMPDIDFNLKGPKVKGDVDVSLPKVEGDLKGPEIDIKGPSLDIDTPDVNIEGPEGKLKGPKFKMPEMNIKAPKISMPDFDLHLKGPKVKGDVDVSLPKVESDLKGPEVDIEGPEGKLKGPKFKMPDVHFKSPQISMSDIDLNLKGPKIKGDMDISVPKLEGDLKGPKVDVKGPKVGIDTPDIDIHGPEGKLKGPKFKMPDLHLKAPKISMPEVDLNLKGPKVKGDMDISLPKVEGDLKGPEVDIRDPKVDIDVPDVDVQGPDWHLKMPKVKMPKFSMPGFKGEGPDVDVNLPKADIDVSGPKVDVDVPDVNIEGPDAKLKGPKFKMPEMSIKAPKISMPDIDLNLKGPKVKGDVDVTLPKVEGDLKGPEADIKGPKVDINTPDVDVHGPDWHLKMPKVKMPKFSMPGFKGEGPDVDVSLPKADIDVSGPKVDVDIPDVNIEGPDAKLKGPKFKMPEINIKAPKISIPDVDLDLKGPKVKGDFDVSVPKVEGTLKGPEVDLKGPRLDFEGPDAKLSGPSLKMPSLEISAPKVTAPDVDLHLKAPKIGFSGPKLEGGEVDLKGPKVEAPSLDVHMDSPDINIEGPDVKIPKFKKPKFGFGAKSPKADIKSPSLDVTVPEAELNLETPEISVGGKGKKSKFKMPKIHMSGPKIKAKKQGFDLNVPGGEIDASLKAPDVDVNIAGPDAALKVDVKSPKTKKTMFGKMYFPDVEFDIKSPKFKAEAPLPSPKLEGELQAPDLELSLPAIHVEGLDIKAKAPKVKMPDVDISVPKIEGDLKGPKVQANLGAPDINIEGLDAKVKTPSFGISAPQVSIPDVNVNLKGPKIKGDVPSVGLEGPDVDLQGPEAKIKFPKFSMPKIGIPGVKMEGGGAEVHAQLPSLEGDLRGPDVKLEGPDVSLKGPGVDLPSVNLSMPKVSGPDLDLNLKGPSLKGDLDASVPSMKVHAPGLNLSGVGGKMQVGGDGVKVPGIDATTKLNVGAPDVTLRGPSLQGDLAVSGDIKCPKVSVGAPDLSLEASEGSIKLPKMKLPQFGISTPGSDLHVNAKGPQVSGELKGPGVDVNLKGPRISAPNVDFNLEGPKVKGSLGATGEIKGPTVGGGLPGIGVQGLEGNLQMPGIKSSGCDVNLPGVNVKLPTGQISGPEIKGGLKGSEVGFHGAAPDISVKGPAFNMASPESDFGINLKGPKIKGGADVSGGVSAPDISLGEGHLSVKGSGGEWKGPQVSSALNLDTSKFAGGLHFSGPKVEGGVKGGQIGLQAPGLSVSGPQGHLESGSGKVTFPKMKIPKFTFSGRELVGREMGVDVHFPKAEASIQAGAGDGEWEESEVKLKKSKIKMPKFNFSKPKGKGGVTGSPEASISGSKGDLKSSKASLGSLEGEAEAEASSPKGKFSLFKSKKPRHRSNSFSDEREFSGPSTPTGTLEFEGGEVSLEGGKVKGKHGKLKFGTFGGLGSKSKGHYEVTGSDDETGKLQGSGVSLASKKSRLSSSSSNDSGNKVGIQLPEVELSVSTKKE

Substance: PLEC (from UniProt Q15149 1-4684)
- binding: binds
